Results reported in PubChem BioAssay AID504834 (National Center for Advancing Translational Sciences (NCATS), 2011).
About 22,000 (6.9%) of roughly 320,000 compounds were called active. Inconclusive means that the source gave no clear call. Such entries were picked first, then a sample of the others. Calls follow the shape of the dose curve; as a rule, active = well fitted inhibition curve with a large enough effect; inconclusive = small, poorly fitted or top-dose-only effect, or another doubt; inactive = no such curve, though single readings can be large or run the other way. Where the call is inconclusive, the potency comes from a doubtful curve fit.
% is scaled to controls: 0 for no effect and ±100 for the full control effect; potency is read from the fitted curve at half-maximal effect.

Experiment: Primary qHTS for delayed death inhibitors of the malarial parasite plastid, 96 hour incubation
Details: P. falciparum luciferase reporter growth; series mostly up to 28.7 µM; activity change, negative = inhibition: at the top concentration
Summary of the method: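 Erythrocytes infected with luciferase-expressing P. falciparum were dispensed at 2% hematocrit and 0.05% parasitemia (final), then incubated with compounds 96 hours at 37 C in 5% CO2. Luminescence after detection reagent addition reported growth.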
In the case of `CCCn1c(CCNC(=O)c2ccco2)nc2ccccc21`, the “activity change, negative = inhibition” value is reported as inactive: 15.4%.
With `CCCCn1c(N)c(N(CC)C(=O)C2CCC2)c(=O)[nH]c1=O` the “activity change, negative = inhibition” value was inactive: -15.4%.
For `CC(=O)Nc1ccc(C(=O)Nc2cc(C)on2)cc1`, the “activity change, negative = inhibition” value was inactive: 17.5%.
In the case of `CCN(C(=O)COC(=O)c1ccc(Br)o1)C1CCCCC1`, the “activity change, negative = inhibition” value is reported as inactive: 13.6%.
For `CCN1CCc2c(C#N)c(N3CCCCC3)nc(NCc3ccccc3)c2C1`, the Potency was active: 2.62 µM.
With `CC(=NC1CCCC1)c1c(C)[nH]n(-c2nc3ccccc3s2)c1=O` the “activity change, negative = inhibition” value was inactive: 485%.
For `Cc1ccc(N2CCN(C(=O)c3cc(C(=O)c4ccccc4C)c[nH]3)CC2)c(C)c1`, the Potency was inconclusive: 18.5 µM [inhibitor, single point].
For `Cc1cc2nncn2c(Cc2ccccc2)n1`, the Potency was inconclusive: 2.62 µM [inhibitor, full curve, poor fit].
For `CC(Cc1ccccc1)NC(=S)CN1CCCC1=S` (stereo not given), the “activity change, negative = inhibition” value was inactive: 0.66%.
In the case of `CN(C)S(=O)(=O)c1ccc(S(=O)(=O)NCCN2CCOCC2)cc1`, the Potency is reported as inconclusive: 11.7 µM [inhibitor, single point].
For `COc1cccc2sc(N(CCCN(C)C)C(=O)c3ccc(S(=O)(=O)N4CCc5ccccc5C4)cc3)nc12`, the “activity change, negative = inhibition” value was inactive: -0.337%.
With `CCCN1CCN(S(=O)(=O)c2ccc3c(c2)NC(=O)C(C)S3)CC1` (stereo not given) the Potency was inconclusive: 18.5 µM [inhibitor, single point].
With `O=C(CCn1cccc1)NCc1ccccc1` the Potency was active: 8.28 µM.
In the case of `Cc1cc(NC(=O)c2ccc(F)c(S(=O)(=O)N3CCCCC3)c2)no1`, the Potency is reported as inconclusive: 2.33 µM [inhibitor, single point].
For `CCOC(=O)C1(CCOc2ccccc2)CCN(Cc2cnc(C)s2)CC1`, the Potency was inconclusive: 2.08 µM [inhibitor, full curve].
In the case of `COc1ccccc1CCNC(=O)c1cnn2c(C(F)F)cc(C)nc12`, the Potency is reported as inconclusive: 2.94 µM [inhibitor, partial curve].
For `CC(C)C(=O)Nc1ccc(NC(=S)NC(=O)c2cc3ccccc3o2)cc1`, the Potency was inconclusive: 9.28 µM [inhibitor, single point].
In the case of `COCCNC(C(=O)Nc1cc(Cl)cc(Cl)c1)c1ccccc1` (stereo not given), the Potency is reported as inconclusive: 5.86 µM [inhibitor, partial curve, poor fit].
For `COc1ccc(Cn2c(O)c(C=Nc3ccccc3)c3ccccc3c2=O)cc1`, the Potency was inconclusive: 18.5 µM [inhibitor, single point].
With `COC(=O)c1c(NC(=O)C2CCC2)sc(C(=O)N(C)C)c1C` the Potency was inconclusive: 16.5 µM [inhibitor, single point].
For `COc1ccc(C(O)(CCC(C)C)C(CN2CCOCC2)c2ccccc2)cc1` (stereo not given), the “activity change, negative = inhibition” value was inactive: -4.49%.
In the case of `CC1CN(C(=O)Nc2cccc(Cl)c2)C2(CCCCCC2)O1` (stereo not given), the “activity change, negative = inhibition” value is reported as inactive: -3.05%.
In the case of `C=C(C)CN(CC)C(=O)c1ccc(OC2CCN(S(=O)(=O)N(C)C)CC2)cc1`, the Potency is reported as active: 4.15 µM.
With `CCOc1ccccc1C(=O)NCC(=O)NNC(=O)CN(C)S(=O)(=O)c1ccc(Cl)cc1` the Potency was inconclusive: 2.08 µM [inhibitor, partial curve, poor fit].
In the case of `CCOc1cc(C)nc(NCc2ccccc2)n1`, the Potency is reported as inconclusive: 9.28 µM [inhibitor, single point].
With `Cc1cccc(OCCCN2CCOCC2)c1` the “activity change, negative = inhibition” value was inactive: 179%.
For `COc1ccc(Nc2nc(Cl)nc(Nc3ccc(OC)cc3OC)n2)c(OC)c1`, the “activity change, negative = inhibition” value was inactive: 18.4%.
In the case of `N#C/C(=C\Nc1ccccc1SC(F)(F)F)c1nc(-c2ccccc2)cs1`, the Potency is reported as inconclusive: 11.7 µM [inhibitor, single point].
In the case of `Cc1cccc(C(=O)N/N=C/c2ccc(OC3CSC3)cc2)c1`, the “activity change, negative = inhibition” value is reported as inactive: 12.4%.
With `O=S(=O)(c1ccccc1OC(F)(F)F)N1CCN(c2ccnc3cc(Cl)ccc23)CC1` the Potency was active: 2.33 µM.
In the case of `CCN(CCCNC(=O)c1[nH]c(C)c(C(C)=O)c1C)c1ccccc1`, the Potency is reported as inconclusive: 0.0131 µM [inhibitor, full curve, poor fit].
For `COc1ccc(S(=O)(=O)N2CCC(c3cc(-c4cccc5ccccc45)n[nH]3)CC2)cc1`, the Potency was inconclusive: 0.828 µM [inhibitor, full curve, poor fit].
In the case of `Cc1ccc2[nH]c3c(c2c1)CN(C(=O)CN1CC(C)OC(C)C1)CC3` (stereo not given), the Potency is reported as inconclusive: 0.0828 µM [inhibitor, full curve, poor fit].
In the case of `Cn1c(=O)n(C)c2cc([N+](=O)[O-])c(N3CCN(CCO)CC3)cc21`, the Potency is reported as inconclusive: 18.5 µM [inhibitor, single point].
For `CCCOc1ccc(S(=O)(=O)n2cc(F)c(=O)[nH]c2=O)cc1`, the Potency was inconclusive: 0.522 µM [inhibitor, full curve, poor fit].
In the case of `O=C(NC(=S)NCCN1CCOCC1)c1ccc(Cl)cc1Cl`, the Potency is reported as inconclusive: 1.85 µM [inhibitor, partial curve].
With `CCOC(=O)c1[nH]c2ccc(Br)cc2c1NC(=O)CCN1CCCCC1` the Potency was inconclusive: 11.7 µM [inhibitor, single point].
For `COc1cc(OC)c2c(C)cc(=O)oc2c1C(CCN1CCOCC1)c1ccc(N(C)C)cc1` (stereo not given), the Potency was inconclusive: 10.4 µM [inhibitor, single point].
With `O=C(NCCOc1ccccc1)C1CCC(=O)N(CCc2ccc(Cl)cc2)C1` (stereo not given) the Potency was inconclusive: 18.5 µM [inhibitor, single point].
With `CCN(CC)S(=O)(=O)c1cccc(NC(=O)CCNC(=O)c2ccc([N+](=O)[O-])cc2)c1` the “activity change, negative = inhibition” value was inactive: -5.95%.
For `CCCC1CCc2c(sc(NC(=O)OCC)c2C#N)C1` (stereo not given), the Potency was active: 11.7 µM.
With `C#Cc1ccc(C(=O)Nc2ccc(N3CCC(C)CC3)c(C(N)=O)c2)cc1` the Potency was inconclusive: 20.8 µM [inhibitor, single point].
In the case of `O=C(Nc1ccc(OC(F)F)c(Cl)c1)C(c1ccccc1)c1ccccc1`, the Potency is reported as inconclusive: 10.4 µM [inhibitor, single point].
With `COc1cc(/C=C2/C(=O)NN(c3ccccc3)C2=O)cc(Br)c1O` the “activity change, negative = inhibition” value was inactive: 7.88%.
For `CCc1ccccc1NC(=O)c1ccc2c(O)c(S(=O)(=O)c3ccc(OC)cc3)c(=O)[nH]c2c1`, the Potency was inconclusive: 18.5 µM [inhibitor, single point].
For `COc1ccccc1-c1cn[nH]c1-c1ccc(OCc2ccc(F)cc2)cc1O`, the Potency was active: 10.4 µM.
For `Cc1ccc(NC2=CC(=O)CC(C)(C)C2)cc1F`, the “activity change, negative = inhibition” value was inactive: -18.3%.
With `C/C(=N\OCC(=O)Nc1nc2ccccc2s1)c1ccccc1` the “activity change, negative = inhibition” value was inactive: 54%.
In the case of `CC(C)n1c(N2CCN(C(=O)Nc3ccccc3)CC2)nc2ccccc21`, the Potency is reported as inconclusive: 9.28 µM [inhibitor, partial curve].
In the case of `CCCCn1nc2cc(C(=O)NCc3ccc(OC(F)(F)F)cc3)ccc2c1OC`, the “activity change, negative = inhibition” value is reported as inactive: 44.5%.
In the case of `O=C(C[n+]1ccc(-c2ccccc2)cc1)Nc1ccc([N+](=O)[O-])cc1`, the “activity change, negative = inhibition” value is reported as inactive: 50.3%.
For `Cc1ccc(NC(=O)c2c(NC(=O)CCC(=O)O)sc3c2CCCCC3)cc1`, the Potency was inconclusive: 13.1 µM [inhibitor, single point].
For `COc1ccc(C2/C=C\CN(C(=O)Oc3ccccc3)CC(=O)N2Cc2ccc(F)cc2)cc1` (stereo not given), the Potency was inconclusive: 18.5 µM [inhibitor, single point].
For `COc1cc(NC(=O)Cn2nc(-c3ccc(F)cc3)ccc2=O)ccc1-n1cnnn1`, the Potency was inconclusive: 1.65 µM [inhibitor, partial curve, poor fit].
With `COc1cccc(C(c2nnnn2CCc2ccccc2)N2CCN(c3ccccc3)CC2)c1OC` (stereo not given) the Potency was inconclusive: 1.17 µM [inhibitor, partial curve, poor fit].
With `COc1ccc(NC(=O)Cn2nnc(C(=O)NCc3ccccc3)c2N)c(OC)c1` the “activity change, negative = inhibition” value was inactive: 39.9%.
With `COc1ccc(C(=O)N2CCCC(C(=O)c3ccccc3OC)C2)cc1OC` (stereo not given) the “activity change, negative = inhibition” value was inactive: -26.1%.
In the case of `COC(=O)c1nnc(-c2ccccc2)nc1OC`, the “activity change, negative = inhibition” value is reported as inactive: 11.3%.
In the case of `CSc1nnc(C)c(=O)n1COC(=O)/C=C/c1ccccc1`, the Potency is reported as inconclusive: 18.5 µM [inhibitor, single point].
With `COC(=O)Nc1nnc(/C=C/c2ccc(OC)cc2)s1` the “activity change, negative = inhibition” value was inactive: 52.7%.
In the case of `COC(=O)c1sc(NC(=S)NC(=O)c2cccc(Br)c2)nc1C`, the “activity change, negative = inhibition” value is reported as inactive: 32.3%.
With `COc1ccc(-n2c(COc3cccc4ccccc34)nnc2SCC(=O)NCc2ccco2)cc1` the “activity change, negative = inhibition” value was inactive: -23.2%.
For `CCN1CCCC1CNC(=O)C(=O)Nc1ccccc1` (stereo not given), the Potency was inconclusive: 13.1 µM [inhibitor, single point].
In the case of `Oc1c(Cl)cc(Cl)cc1/C=N/c1ncn[nH]1`, the “activity change, negative = inhibition” value is reported as inactive: 13.7%.
With `CC(=O)c1ccc(NC(=O)CN(c2c(C)cccc2C)S(C)(=O)=O)cc1` the Potency was inconclusive: 9.28 µM [inhibitor, single point].
With `O=C(O)C/C(=C\c1cc2c(cc1Br)OCO2)c1nc2ccccc2s1` the “activity change, negative = inhibition” value was inactive: 44.6%.
In the case of `COC(=O)Cc1[nH]nc2c1C(c1c[nH]c3ccccc13)C(C#N)=C(N)O2` (stereo not given), the Potency is reported as inconclusive: 0.0029 µM [inhibitor, full curve, poor fit].
For `O=C(CCl)Nc1ccc(N2CCCCCC2)cc1`, the Potency was inconclusive: 4.15 µM [inhibitor, partial curve, poor fit].
With `COc1ccc2cc3cc(C(=O)NC(C)C)oc3nc2c1` the Potency was active: 2.94 µM.
For `CCCCCc1nc2c(=O)[nH]c3ccccc3c2o1`, the Potency was active: 5.22 µM.
With `COc1cc(OC)cc(C(=O)N[C@H](C(=O)Nc2nc(-c3ccc(OC)c(OC)c3)cs2)C(C)C)c1` the Potency was active: 10.4 µM.
In the case of `O=S(=O)(Cc1cnc(Cl)s1)c1ccccc1`, the “activity change, negative = inhibition” value is reported as inactive: 12.3%.
With `CCN1C(=O)C(CC(=O)Nc2ccc(OC)cc2)N(Cc2cccnc2)C1=S` (stereo not given) the Potency was inconclusive: 18.5 µM [inhibitor, single point].
With `CCC1CN(C(=O)N2CCC(C(=O)NCCc3ccc(OC)c(OC)c3)CC2)c2ccccc2O1` (stereo not given) the “activity change, negative = inhibition” value was inactive: -26.1%.
For `CCS(=O)(=O)Nc1cccc(-c2ccc3nnc(C)n3n2)c1`, the Potency was inconclusive: 18.5 µM [inhibitor, single point].
